The record followed here is PMC10853178.

The target in test [1] is T1, gasdermin E (GSDME), exogenous, in 293T cells (UniProt O60443).
T1 sequence: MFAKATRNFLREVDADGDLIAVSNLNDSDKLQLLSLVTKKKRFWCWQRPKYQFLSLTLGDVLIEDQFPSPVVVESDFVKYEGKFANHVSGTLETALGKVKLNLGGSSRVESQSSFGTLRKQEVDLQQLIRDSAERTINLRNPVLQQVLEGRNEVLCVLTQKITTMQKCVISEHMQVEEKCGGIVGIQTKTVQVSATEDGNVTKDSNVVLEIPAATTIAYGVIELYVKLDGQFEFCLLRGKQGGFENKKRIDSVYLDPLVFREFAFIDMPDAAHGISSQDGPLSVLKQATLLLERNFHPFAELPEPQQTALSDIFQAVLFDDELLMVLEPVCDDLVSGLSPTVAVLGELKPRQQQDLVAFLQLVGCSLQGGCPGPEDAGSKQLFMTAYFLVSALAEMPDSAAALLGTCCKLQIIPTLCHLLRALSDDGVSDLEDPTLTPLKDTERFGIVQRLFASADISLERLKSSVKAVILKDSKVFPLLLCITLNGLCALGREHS
The experiment in a line: proximity ligation; in situ PLA in 293T cells, Duolink In Situ Detection Reagents Red kit; Flag and HA primary antibodies overnight at 4 °C.

Test [2] deals with T1, gasdermin E (GSDME), exogenous, in 293T cells. Briefly: co-IP; 293T cells 48 h after transfection; lysis in 50 mM Tris-HCl pH 7.4, 150 mM sodium chloride, 5% glycerol, 1% IGEPAL CA-630; anti-Flag or anti-HA antibody with protein G, anti-IgG as control; 6 washes.

No constants are given. Whether binding was seen depends on the method and setting. In cells and extracts the contact can be indirect. Some entries that bind do so weakly or less than the wild type.

B1: Tumor necrosis factor superfamily member 15 (TNFSF15), exogenous, in 293T cells (protein, UniProt O95150 1-251)
chain: MAEDLGLSFGETASVEMLPEHGSCRPKARSSSARWALTCCLVLLPFLAGLTTYLLVSQLRAQGEACVQFQALKGQEFAPSHQQVYAPLRADGDKPRAHLTVVRQTPTQHFKNQFPALHWEHELGLAFTKNRMNYTNKFLLIPESGDYFIYSQVTFRGMTSECSEIRQAGRPNKPDSITVVITKVTDSYPEPTQLLMGTKSVCEVGSNWFQPIYLGAMFSLQEGDKLMVNVSDISLVDYTKEDKTFFGAFLL
With B1, the binding entry in test [1] and in test [2] was “binds” throughout.
